4 sequences from publication PMC6683157 can be followed below.

For at least one entry, the source does not settle the construct or the ends of the probe. The comparison behind a weaker result is the experiment's own reference, which may not be listed here.

The subject of this data set is Csm2 (wild type) + Psy3 (wild type). As to the kind of experiment: EMSA. The note with it: U32 of strand 2 = dU, EMSA: 25 mM Tris-HCl pH 8.0, 50 mM NaCl, 1 mM DTT, 100 ug/mL BSA, 5% glycerol, 25 C, recombinant protein, protein details: N-terminal 6xHis-TEV, label: 3' Cy3 on X01.

Consider “GACGCTGCCGAATTCTACCAGTGCCTTGCTAGGACATCTTTGCCCACCTGCAGGTTCACCC / ATCGATAGTCGGATCCTCTAGACAGCTCCATUTAGCAAGGCACTGGTAGAATTCGGCAGCGT / ATGGAGCTGTCTAGAGGATCCGACTATCGA [Cy3 3' flap (X01/X04/DS3)]”, for which, for the setting “similar to double-flap”, the binding result is “binds”.

Take “GACGCTGCCGAATTCTACCAGTGCCTTGCTAGGACATCTTTGCCCACCTGCAGGTTCACCC / ATCGATAGTCGGATCCTCTAGACAGCTCCATUTAGCAAGGCACTGGTAGAATTCGGCAGCGT / TGGGTGAACCTGCAGGTGGGCAAAGATGTCC / ATGGAGCTGTCTAGAGGATCCGACTATCGA [Cy3 static replication fork (X01/X04/DS2/DS3)]”: the binding result (decreased affinity vs flaps) is listed as “binds more weakly”.

Regarding “GACGCTGCCGAATTCTACCAGTGCCTTGCTAGGACATCTTTGCCCACCTGCAGGTTCACCC / ATCGATAGTCGGATCCTCTAGACAGCTCCATUTAGCAAGGCACTGGTAGAATTCGGCAGCGT / TGGGTGAACCTGCAGGTGGGCAAAGATGTCC [Cy3 5' flap (X01/X04/DS2)]”, the binding result (similar to double-flap) is recorded as “binds”.

With “GACGCTGCCGAATTCTACCAGTGCCTTGCTAGGACATCTTTGCCCACCTGCAGGTTCACCC / ATCGATAGTCGGATCCTCTAGACAGCTCCATUTAGCAAGGCACTGGTAGAATTCGGCAGCGT [Cy3 double-flap (X01/X04)]”, the binding result is listed as “binds”.
